Data as given in PubChem BioAssay AID248 (DTP/NCI, 2004).
The list does not hold the whole screen: it is rich in T/C values a quarter to a half above the control, in often repeated tests (any T/C) and in doses without a T/C. Further doses and runs are listed elsewhere. T/C: endpoint of the treated group in % of that of the vehicle group. Some doses have a count of surviving animals in place of a T/C: the source holds a T/C of zero for them, seemingly a mark for toxic or unscored doses. Some survivor counts are full or nearly so, which does not show that the dose was tolerated: the source hardly ever lists a survival T/C far under the control, and the zero likely stands for such cases as well. Counts of survivors are from the toxicity check (mostly the fifth day) where no day follows; animals may have died later. Schedule codes are those of the source, read here as Q, the interval in days (D) or hours (H), X, the number of doses. Some entries were tested several times; their values stand side by side, smallest first. Where survival is the endpoint, this PubChem deposit counts one and a half times the control or more as active, and values a quarter to a half above the control carry no call in these data; other NCI protocols may use other cut-offs. Some schedules carry Z or #; the key to these is not given.

System: L1210 leukemia ip in BDF1 mice, survival T/C
Experiment: NCI In Vivo Anticancer Drug Screen. Data for tumor model L1210 Leukemia (intraperitoneal) in B6D2F1 (BDF1) mice
Details: T/C endpoint: mean survival time, higher T/C = longer survival
[1] = dose: 100.0 mg/kg/injection, schedule: Q04DX003 (ip), vehicle: saline
[2] = dose: 200.0 mg/kg/injection, schedule: Q04DX003 (ip), vehicle: saline
[3] = dose: 400.0 mg/kg/injection, schedule: Q04DX003 (ip), vehicle: saline
[4] = dose: 100.0 mg/kg/injection, schedule: Q04DX003 (ip), vehicle: saline with Tween-80
[5] = dose: 200.0 mg/kg/injection, schedule: Q04DX003 (ip), vehicle: saline with Tween-80
[6] = dose: 400.0 mg/kg/injection, schedule: Q04DX003 (ip), vehicle: saline with Tween-80
[7] = dose: 200.0 mg/kg/injection, schedule: Q04DX003 (ip), vehicle: Klucel (hydroxypropylcellulose) (HPC)
[8] = dose: 400.0 mg/kg/injection, schedule: Q04DX003 (ip), vehicle: Klucel (hydroxypropylcellulose) (HPC)
[9] = dose: 400.0 mg/kg/injection, schedule: Q01DX009 (ip), vehicle: saline with Tween-80
[10] = dose: 200.0 mg/kg/injection, schedule: Q01DX009 (ip), vehicle: saline

SMILES: CCCCCCCCCCCCCCCC(=O)N(CCCN)CCCN
- survivor count (dose: 25.0 mg/kg/injection, schedule: Q01DX009 (ip), vehicle: saline with Tween-80): 0 of 6
- survivor count (dose: 50.0 mg/kg/injection, schedule: Q01DX009 (ip), vehicle: saline with Tween-80): 0 of 6
- survivor count [1]: 0 of 6
- survivor count [2]: 0 of 6
- survivor count [3]: 0 of 6

SMILES: c1ccc(C2CC([P+](c3ccccc3)(c3ccccc3)c3ccccc3)=NN2CC[P+](c2ccccc2)(c2ccccc2)c2ccccc2)cc1 (stereo not given)
- survivor count [4]: 0 of 6
- survivor count [5]: 0 of 6
- survivor count [6]: 0 of 6

SMILES: O=C1CCCC(=O)C1C(C[N+](=O)[O-])c1ccccc1 (stereo not given)
- survivor count [7]: 6 of 6
- survivor count [8]: 0 of 6

SMILES: COc1ccc(C[n+]2cc([O-])on2)cc1
- survivor count (dose: 170.0 mg/kg/injection, schedule: Q01DX009 (ip), vehicle: Klucel (hydroxypropylcellulose) (HPC)): 6 of 6
- survivor count (dose: 170.0 mg/kg/injection, schedule: Q04DX003 (ip), vehicle: other): 0 of 6
- survivor count (dose: 200.0 mg/kg/injection, schedule: Q01DX001 (ip), vehicle: Klucel (hydroxypropylcellulose) (HPC)): 2 of 6
- survivor count (dose: 260.0 mg/kg/injection, schedule: Q01DX009 (ip), vehicle: Klucel (hydroxypropylcellulose) (HPC)): 0 of 6

SMILES: C1=NC(c2ccccc2)=CN(C2CCCCCCC2)C1(c1ccccc1)C1CCCCCCC1 (stereo not given)
- survivor count (dose: 200.0 mg/kg/injection, schedule: Q04DX002 (ip), vehicle: saline): 2 of 3

SMILES: CC(=O)Oc1cc(OC(C)=O)c2c(OC(C)=O)c3c(OC(C)=O)cc(C)cc3cc2c1
- survivor count (dose: 20.0 mg/kg/injection, schedule: Q01DX001 (ip), vehicle: saline): 1 of 6
- survivor count (dose: 40.0 mg/kg/injection, schedule: Q01DX001 (ip), vehicle: saline): 0 of 6
- survivor count (dose: 80.0 mg/kg/injection, schedule: Q01DX001 (ip), vehicle: saline): 0 of 6

SMILES: CCCCOP(=O)(OCCCC)C(C)c1ccccc1 (stereo not given)
- survivor count (dose: 100.0 mg/kg/injection, schedule: Q01DX009 (ip), vehicle: saline with Tween-80): 2 of 3 and 5 of 6
- survivor count [4]: 0 of 6
- survivor count (dose: 200.0 mg/kg/injection, schedule: Q04DX002 (ip), vehicle: saline with Tween-80): 3 of 6
- survivor count [5]: 0 of 6
- survivor count (dose: 400.0 mg/kg/injection, schedule: Q04DX002 (ip), vehicle: saline with Tween-80): 0 of 6

SMILES: CCc1nc(C#N)c(N)o1
- survivor count (dose: 75.0 mg/kg/injection, schedule: Q01DX001 (ip), vehicle: saline): 2 of 6
- survivor count (dose: 150.0 mg/kg/injection, schedule: Q01DX001 (ip), vehicle: saline): 0 of 6
- survivor count (dose: 300.0 mg/kg/injection, schedule: Q01DX001 (ip), vehicle: saline): 0 of 6

SMILES: C[N+](C)(C)CC(O)COc1ccc(Cl)cc1Cl (stereo not given)
- survivor count (dose: 200.0 mg/kg/injection, schedule: Q04DX002 (ip), vehicle: Klucel (hydroxypropylcellulose) (HPC)): 0 of 3
- survivor count (dose: 400.0 mg/kg/injection, schedule: Q04DX002 (ip), vehicle: Klucel (hydroxypropylcellulose) (HPC)): 0 of 3

SMILES: CCCCCCC(=O)/C=C\c1ccc([N+](C)(C)C)cc1
- survivor count (dose: 100.0 mg/kg/injection, schedule: Q01DX009 (sc), vehicle: steroid suspending solution): 0 of 6
- survivor count (dose: 200.0 mg/kg/injection, schedule: Q01DX001 (sc), vehicle: steroid suspending solution): 2 of 6
- survivor count (dose: 400.0 mg/kg/injection, schedule: Q01DX001 (sc), vehicle: steroid suspending solution): 0 of 6

SMILES: COc1cccc[n+]1[O-]
- survivor count [3]: 0 of 6

SMILES: O=C(CCl)NC(CO)C(=O)O (stereo not given)
- survivor count [9]: 0 of 6
- survivor count [6]: 6 of 6

SMILES: CCOC(C)C1C2CCCCC21 (stereo not given)
- survivor count [9]: 0 of 6

SMILES: NC(=O)NN=C1CCC(CC2CCCCC2)CC1 (stereo not given)
- survivor count [4]: 5 of 6

SMILES: CCCc1nc2c(OC)ccc(OC)c2nc1C
- survivor count (dose: 400.0 mg/kg/injection, schedule: Q01DX009 (ip), vehicle: Klucel (hydroxypropylcellulose) (HPC)): 0 of 6

SMILES: CCCNCCN
- survivor count [10]: 4 of 6
- survivor count [3]: 0 of 6

SMILES: CS(=O)(=O)OCCN(CCOS(C)(=O)=O)c1ccc(C=Nc2cccc(C(=O)O)c2)cc1
- T/C (dose: 10.0 mg/kg/injection, schedule: Q04DX003 (ip), vehicle: Klucel (hydroxypropylcellulose) (HPC)): 129 % of control
- T/C (dose: 20.0 mg/kg/injection, schedule: Q04DX003 (ip), vehicle: Klucel (hydroxypropylcellulose) (HPC)): 145 % of control
- T/C (dose: 40.0 mg/kg/injection, schedule: Q04DX003 (ip), vehicle: Klucel (hydroxypropylcellulose) (HPC)): 131 % of control
- survivor count (dose: 100.0 mg/kg/injection, schedule: Q04DX003 (ip), vehicle: Klucel (hydroxypropylcellulose) (HPC)): 5 of 6
- survivor count [7]: 2 of 6
- survivor count [8]: 0 of 6

SMILES: CN1CCN=C1c1ccc(NC(=O)c2cccc(C(=O)Nc3ccc(C4=NCCN4C)cc3)c2)cc1
- T/C (dose: 15.0 mg/kg/injection, schedule: Q01DX Z (ip), vehicle: saline): 126 and 135 % of control

SMILES: O=C(O)c1ccc(N2C(=O)C=CC2=O)cc1 (tested in a mixture with another compound)
- survivor count (dose: 25.0 mg/kg/injection, schedule: Q01DX009 (ip), vehicle: acetone): 2 of 6
- survivor count (dose: 50.0 mg/kg/injection, schedule: Q01DX009 (ip), vehicle: acetone): 1 of 6

SMILES: COc1ccc(C(=O)C(C)(CN(C)C)c2ccccc2)cc1 (stereo not given)
- survivor count [2]: 2 of 6
- survivor count [3]: 0 of 6

SMILES: CCCCCCCC(=O)[O][Pb]([CH2]C)([CH2]C)[CH2]C
- survivor count (dose: 25.0 mg/kg/injection, schedule: Q04DX002 (ip), vehicle: DMSO): 0 of 3
- survivor count (dose: 50.0 mg/kg/injection, schedule: Q04DX002 (ip), vehicle: DMSO): 0 of 3
- survivor count (dose: 100.0 mg/kg/injection, schedule: Q04DX002 (ip), vehicle: DMSO): 0 of 3
- survivor count (dose: 200.0 mg/kg/injection, schedule: Q04DX002 (ip), vehicle: DMSO): 0 of 3
- survivor count (dose: 400.0 mg/kg/injection, schedule: Q04DX002 (ip), vehicle: DMSO): 0 of 3

SMILES: Cc1cccc(NCc2ccc(Cl)cc2Cl)c1
- survivor count [5]: 6 of 6

SMILES: CC(=O)OC1=C2C(C)(CCC(OC(C)=O)C2(C)C)C2=C(C1=O)C1(C)CCC(C(C)CCCC(C)C)C1(C)CC2=O (stereo not given)
- survivor count [6]: 4 of 4

SMILES: C=CC[P+](CC)(c1ccccc1)c1ccccc1
- survivor count (dose: 6.25 mg/kg/injection, schedule: Q01DX009 (ip), vehicle: saline): 0 of 3
- survivor count (dose: 12.5 mg/kg/injection, schedule: Q01DX009 (ip), vehicle: saline): 0 of 3
- survivor count (dose: 25.0 mg/kg/injection, schedule: Q01DX009 (ip), vehicle: saline): 0 of 3
- survivor count (dose: 50.0 mg/kg/injection, schedule: Q01DX009 (ip), vehicle: saline): 0 of 3
- survivor count (dose: 100.0 mg/kg/injection, schedule: Q01DX009 (ip), vehicle: saline): 0 of 3
- survivor count [10]: 0 of 3

SMILES: OC(CCl)CBr (stereo not given)
- survivor count [1]: 6 of 6
- survivor count [2]: 0 of 6
- survivor count [3]: 0 of 6

SMILES: CCCCCCCCCCCCCCCCCC[n+]1cccc(C(=O)c2ccccc2)c1
- survivor count (dose: 75.0 mg/kg/injection, schedule: Q01DX001 (ip), vehicle: other): 1 of 6
- survivor count (dose: 150.0 mg/kg/injection, schedule: Q01DX001 (ip), vehicle: other): 0 of 6
- survivor count (dose: 300.0 mg/kg/injection, schedule: Q01DX001 (ip), vehicle: other): 0 of 6

SMILES: COC1OC(COC(=S)SCC2OC(OC)C(OC)C(OC)C2OC)C(OC)C(OC)C1OC (stereo not given)
- survivor count (dose: 100.0 mg/kg/injection, schedule: Q04DX002 (ip), vehicle: Klucel (hydroxypropylcellulose) (HPC)): 3 of 3
